# Reference: publication PMC12548414
# In all, about 1,600 compounds went through this assay and about 20 (1%) showed an effect of 50% or more. This is one part of the list.
# Tested on: T1, E. coli pLC1021 (luc-trpAt trans-translation reporter)
# T1 construct: pLC1021 luc-trpAt reporter strain
# Parameters: species or system Escherichia coli pLC1021; luc-trpAt non-stop luciferase reporter; luminescence rises when trans-translation is inhibited; normalized to KKL-35 and DMSO
# Conditions: reporter signal, KKL-35 = 100%; rise means trans-translation inhibition; 2 h, 20 µM
# Outline: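 Luminescence (560 nm, 10 min after Bright-Glo) reports luciferase that escapes trans-translation tagging, measured after 2 h room-temperature treatment with 20 µM compound. Each plate was scaled between DMSO (negative) and 20 µM KKL-35 (positive) controls. Compounds scoring one standard deviation above the median counted as positive; at least two biological repeats.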
row,Structure (SMILES),% activation
1,CN(Cc1ccccc1)CC(O)COc1ccc(CNCc2cc3ccccc3s2)cc1 (centres unmarked) [KKL-0618],0%
2,CCOC(=O)COc1ccc(OCc2ccccc2)cc1 [KKL-0404],1%
3,NC(=O)c1cc(-c2ccsc2)ccc1OCCOc1ccccc1 [KKL-1826],0%
4,Cc1ccc([N+](=O)[O-])cc1NC(=O)Nc1cccc(Cl)c1 [KKL-1362],4%
5,CCOc1ccc(NC(=O)c2c(NC(=O)CNCCN3CCOCC3)sc3c2CCC3)cc1 [KKL-1306],1%
6,O=C(/C=C/c1cccc(C(F)(F)F)c1)Nc1cccc(C(F)(F)F)c1 [KKL-1369],0%
7,O=C(CC(c1ccccc1)c1ccccc1)N1CCN(Cc2ccc3c(c2)OCO3)CC1 [KKL-0442],7%
8,CCOC(=O)COc1ccc2c(=O)c(-c3ccc(OC)cc3)c(C)oc2c1 [KKL-0434],0%
9,Cc1nn(C)c(C)c1-c1cc(C(=O)NCc2cc(CC(C)C)no2)n[nH]1 [KKL-0507],0%
10,Cc1ccc(-c2nnc(SCC#CCOC(=O)c3ccco3)o2)cc1 [KKL-1392],0%
11,CCOC(=O)COc1c(Cl)cc(/C=C(/C#N)c2nc3cc(OC)ccc3[nH]2)cc1Cl [KKL-0592],0%
12,COC(=O)COc1ccc2c(=O)c(-c3ccccc3Cl)c(C)oc2c1 [KKL-0748],0%
13,Oc1ccc(Br)c2cccnc12 [KKL-0093],371%
14,COc1ccc(Cc2nc3ccc(C(=O)NCCCSC)cc3o2)cc1 [KKL-1182],0%
15,COC(=O)c1ccc(COC(=O)c2ccccc2Cl)cc1 [KKL-1465],0%
16,OC1=C2C(=Nc3ccccc3NC2c2ccc(C(F)(F)F)cc2)CC(c2ccc(Cl)cc2)C1 (centres unmarked) [KKL-1366],0%
17,O=C(CN(c1ccc(Cl)c(Cl)c1)S(=O)(=O)c1ccccc1)Nc1cccc([N+](=O)[O-])c1 [KKL-1361],2%
18,Cc1cccc(-c2ccc(NC(=O)C3CCN(Cc4ccc(C#CCO)s4)CC3)cc2)c1 [KKL-1139],8%
19,CCOC(=O)CSc1n[nH]c(-c2ccc(Cl)cc2)n1 [KKL-0589],0%

row,Structure (SMILES),% activation
1,Cc1cc(Sc2ncnc(N)c2[N+](=O)[O-])ncn1 [KKL-0861],0%
2,CCOc1ccc(NC(=O)CSc2nnc(-c3ccccc3Cl)o2)cc1 [KKL-1498],2%
3,Cc1ccc(Cc2cnc(NC(=O)c3cccs3)s2)cc1 [KKL-1628],0%
4,c1ccc(CC2CCN(c3nc4ccccc4n4cnnc34)CC2)cc1 [KKL-1607],0%
5,CCCOc1ccccc1-c1n[nH]c(SCC(=O)OCC)n1 [KKL-1289],5%
6,COc1ccc(CN2CCC(O)(c3cccnc3)CC2)cc1COc1ccccc1F [KKL-0345],3%
7,CSc1ncc(C(=O)NC2(c3ccccc3)CCCC2)cn1 [KKL-0465],0%
8,CCOC(=O)c1c(NC(=O)c2c(F)c(F)c(F)c(F)c2F)sc(C(N)=O)c1C [KKL-0976],5%
9,N#Cc1ccc(-c2ccc(OCC(N)=O)cc2)cc1 [KKL-1337],0%
10,CCC(C)Oc1ccc(C(=O)NC(=S)Nc2ccc(N3CCOCC3)cc2)cc1 (centres unmarked) [KKL-0419],0%
11,COC(=O)[C@@H](NC(=O)c1cc(COc2ccccc2)on1)c1ccccc1 [KKL-0677],2%
12,COC(=O)COc1ccc2c(=O)c(-c3ccc(Cl)cc3)coc2c1 [KKL-0789],0%
13,O=C(Oc1ccc(Cl)c2cccnc12)c1cccs1 [KKL-0415],4%
14,COC(=O)COc1ccc(CSCC(=O)Nc2ccc3ccccc3c2)cc1 [KKL-1064],6%
15,NC1CCc2nc(-c3cccnc3)nc(Nc3ccc(Cl)cc3)c2C1 (centres unmarked) [KKL-0540],119%
16,CC(NC(=O)Nc1nnc(C(F)(F)F)s1)(C(F)(F)F)C(F)(F)F [KKL-1003],0%
17,O=C(NC(=S)N1CCc2ccccc21)c1ccccc1 [KKL-1445],17%
18,Cc1ccc(NC(=S)NC[C@H]2C[C@@H]3CCN2C[C@@H]3c2cc(-c3ccc(N(C)C)cc3)nc(C)n2)c(Br)c1 [KKL-0303],0%
19,CCOC(=O)c1ccc(COC(=O)c2cccc([N+](=O)[O-])c2)cc1 [KKL-1497],3%

# Molecules above with a cyano group (2):
row,Structure (SMILES),% activation
11,CCOC(=O)COc1c(Cl)cc(/C=C(/C#N)c2nc3cc(OC)ccc3[nH]2)cc1Cl [KKL-0592],0%
9,N#Cc1ccc(-c2ccc(OCC(N)=O)cc2)cc1 [KKL-1337],0%

# Later entries

row,Structure (SMILES),% activation
1,c1ccc(-c2nc(N3CCCCCC3)c3ccccc3n2)nc1 [KKL-1000],1%
2,Cc1ccc2nc(C(F)(F)F)c(C(=O)NCc3ccc(C)o3)n2c1 [KKL-1878],2%
3,CCC(C)(C)c1ccc(OCCCn2ccnc2)cc1 [KKL-1315],9%
4,CC(C)CC(=O)NC(c1ccc(Cl)cc1Cl)c1c(O)ccc2ccccc12 (centres unmarked) [KKL-1379],13%
5,Cc1cc(O)nc(-n2nc(C)cc2C)n1 [KKL-1071],6%
6,Nc1cccnc1Nc1ccc(C(F)(F)F)cc1 [KKL-1711],4%
7,Cc1ccc(-n2cnc3cc(NCc4cccs4)ccc32)cc1 [KKL-1433],3%
8,CCc1cc(C(=O)OC)c(N=C(S)NCc2ccc(Cl)c(Cl)c2)s1 [KKL-1547],0%
9,O=C(C=Cc1ccccc1)N1CCN(Cc2ccc3c(c2)OCO3)CC1 [KKL-1699],1%
10,S=C(NCCc1c[nH]c2ccccc12)Nc1ccc(Nc2ccccc2)cc1 [KKL-1443],6%
11,Cc1ccc(-c2csc(-c3ccncc3)n2)cc1C [KKL-0956],0%
12,Cc1ccc(Nc2cc(C)nc(NCc3ccccc3)n2)cc1 [KKL-0951],4%
13,Cc1ccc(NCCC(=O)c2ccc([N+](=O)[O-])cc2)cc1C [KKL-0401],14%
14,COc1ccc(-c2csc(NC(=O)C3CC4C=CC3C43CC3)n2)cc1OC (centres unmarked) [KKL-0928],0%
15,CC(C)(C)c1ccc(C(=O)Nc2ccc(NC(=S)NC(=O)c3cccs3)cc2)cc1 [KKL-0310],0%
16,CC1CCCCN1C(=O)COC(=O)/C=C/c1ccc2ccccc2n1 (centres unmarked) [KKL-0816],0%
17,Cc1ccc2nc(C(F)(F)F)c(C(=O)NCc3cccc(OC(C)C)c3)n2c1 [KKL-1772],2%
18,CCC(C)c1ccc(O)c(NC(=S)NC(=O)c2cncc(Br)c2)c1 (centres unmarked) [KKL-0711],3%
